# “Also recorded” adds a separate entry of the source. At least one compound was matched to its structure with a doubt left.
# Test system: AT6.3 metastasis model
# Experiment: AT6.3 Dunning prostate cancer metastasis model, survival
# Type: in vivo
# Details: itraconazole daily at 25 and 37.5 mg/kg; month-long experimental period; control-treated mice died in approximately 2 weeks
smiles,measurement,value
"CCC(C)n1ncn(-c2ccc(N3CCN(c4ccc(OCC5COC(Cn6cncn6)(c6ccc(Cl)cc6Cl)O5)cc4)CC3)cc2)c1=O (racemic) [Itraconazole, (±)-cis-4-[4-[4-[4-[[2-(2,4-dichlorophenyl)-2-(1H-1,2,4-triazol-1-yl-methyl)-1,3-dioxolan-4-yl)methoxy]phenyl]-1-piperazinyl]phenyl]-2,4-dihydro-2-(1-methylpropyl)-3H-1,2,4-triazol-3-one]",survival,as effective as cyclopamine in extending survival; also recorded: prolongs survival as effectively as cyclopamine

# Reference: patent US8653083B2, “Hedgehog pathway antagonists to treat disease” (The Johns Hopkins University, priority 2005, dated 2014)
